What all share (assay): PRISMA enrichment of interactor (LFQ) in peptide spot vs all other peptide spots (log2 fold change); higher = stronger / more specific binding of the interactor to the peptide
The target in one experiment is AASDHPPT, Q9NRN7. The method, then:
(§1)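 PRISMA: 221 full-length sORF-encoded peptides (3-15 aa), plus SOS1/GLUT1 control peptides, were spot-synthesized on cellulose membranes in triplicate. Membranes were incubated with HEK293T lysate, and bound proteins were identified by LC-MS/MS with LFQ. Enrichment is the log2 fold change versus all other peptide spots; only significant interactors are listed (cutoff c=6, x0=2.8).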

For the next experiment, the target named is FDX1, P10109. As to the method:
as §1

Another experiment deals with LTF, P02788. The method, then: as §1
Another experiment concerns the target SAPCD2, Q86UD0. As to the method:
as §1

The target in the next experiment is SPTSSA, Q969W0. The method, then:
as §1

This is one part of the list. The list holds hits alone, and they repeat only in part.

B1: NUS1 (peptide)
chain: MAAGAR
As to B1, the “PRISMA enrichment of interactor (log2)” value was 3.98 with AASDHPPT, Q9NRN7; 4.4 with FDX1, P10109; 7.32 with LTF, P02788; 7.76 with SAPCD2, Q86UD0; 9.15 with SPTSSA, Q969W0.

Source of the values: the supplement of paper PMC10032668.
